# Source: patent US20140088056A1, “CARDIAC GLYCOSIDES ARE POTENT INHIBITORS OF INTERFERON-BETA GENE EXPRESSION” (priority 2010, published 2014)
# System: IFNβ promoter
# Assay type: cell-based, human
# Conditions: chemical library screen
smiles,measurement,value
CNC1CCc2cc(OC)c(OC)c(OC)c2-c2ccc(OC)c(=O)cc21 (stereo not shown) [Colcemid],Inhibition % @ 10 μM of virus induced IFNβ expression,52.7%
